No constants are given. Whether binding was seen depends on the method and setting. In cells and extracts the contact can be indirect.

The values below come from publication PMC11281990.

The assay has as its target T1, Z-DNA/RNA binding protein 1 (rat (endogenous in Sprague Dawley hippocampal neurons)) (UniProt Q8VDA5).
T1 sequence: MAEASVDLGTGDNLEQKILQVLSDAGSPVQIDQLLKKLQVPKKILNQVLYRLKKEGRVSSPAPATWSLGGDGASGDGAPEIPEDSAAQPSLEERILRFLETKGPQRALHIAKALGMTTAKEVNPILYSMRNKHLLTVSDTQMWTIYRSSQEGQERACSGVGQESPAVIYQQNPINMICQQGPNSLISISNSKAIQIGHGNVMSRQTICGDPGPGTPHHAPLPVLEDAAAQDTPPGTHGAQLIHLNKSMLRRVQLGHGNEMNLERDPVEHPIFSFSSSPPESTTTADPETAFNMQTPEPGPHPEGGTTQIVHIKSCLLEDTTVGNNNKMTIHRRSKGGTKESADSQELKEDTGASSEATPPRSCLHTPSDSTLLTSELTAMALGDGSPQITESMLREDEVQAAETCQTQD
The assay can be described thus: co-IP; lysate of rat hippocampal neurons primed with sevoflurane (3%, 6 h); precipitated with 1 ug anti-ZBP1 antibody and protein A/G PLUS-Agarose overnight at 4 C, washed five times with M2 buffer; immunoblot for ADAR1-P150, ADAR1-P110, ADAR2, ADAR3.

In the case of ADAR2 (from UniProt P51400 1-711), the binding result is “no binding”.

B1: ADAR3 (protein, UniProt P97616 1-746)
chain: MASVLGSGRGSGGLSSQLKCKSKRRRRRRSKRKDKVSILSTFLAPFKYLSPGTTNTEDEDNLSTSSAEVKENRNVSNLGTRPLPPGDWARGGSTPSVKRKRPLEEGNGGHFCKLQLIWKKLSWSMTPKNALVQLHELKPGLQYRMVSQTGPVHAPVFAVAVEVNGLTFEGTGPTKKKAKMRAAEMALKSFVQFPNAFQAHLAMGSSTSPCTDFTSDQADFPDTLFKEFEPSSRNEDFPGCCPVDTEFLSSAYRRGRLLYHTLDLMGQALPDRSRLAPGALGERNPVVVLNELRSGLRYVCLSETAEKPRVKSFVMAVCVDGRTFEGSGRSKKLAKGQAAQAALQALFDIRLPGHIPSRSKSNLLPQDFADSVSQLVTQKFRELTVGLTSVYARHKTLAGIVMTKGLDTKQAQVIVLSSGTKCISGEHISDQGLVVNDCHAEIVARRAFLHFLYTQLELHLSKHQEDPERSIFIRVKEGGYRLRENILFHLYVSTSPCGDARLNSPYEITIDLNSSKHIVRKFRGHLRTKIESGEGTVPVRGPSAVQTWDGILLGEQLVTMSCTDKIASWNVLGLQGALLCHFIEPVYLHSIIVGSLHHTGHLARVMSHRMEGIGQLPASYRQNRPLLSGVSNAEARQPGKSPHFSANWVVGSADLEIINATTGKRSCGGSSRLCKHVFSARWARLHGRLSTRIPGHGDTPSMYCEAKRGAHTYQSVKQQLFKAFQKAGLGTWVRKPPEQDQFLLSL
With B1, the binding result is listed as “no binding”.
